About 6,100 (1.1%) of roughly 580,000 compounds were called active. Not shown: some 15% with an inconclusive outcome. Calls come from the whole dose curve; as a rule, active = well fitted inhibition curve with a large enough effect; inconclusive = small, poorly fitted or top-dose-only effect, or another doubt; inactive = no such curve, though single readings can be large or run the other way. This is a selection; strong and weak results do not stand in their true shares. Where no call is shown, the source filed none. The source holds several records for some structures; these can differ, active in one and inactive in another.
% is set by controls: 0 for no effect and ±100 for the full control effect; potency is the fitted concentration of half-maximal effect.

By UniProt entry, the sequences of proteins in these tests, tags left out.
UniProt P18054, whole entry, looked up: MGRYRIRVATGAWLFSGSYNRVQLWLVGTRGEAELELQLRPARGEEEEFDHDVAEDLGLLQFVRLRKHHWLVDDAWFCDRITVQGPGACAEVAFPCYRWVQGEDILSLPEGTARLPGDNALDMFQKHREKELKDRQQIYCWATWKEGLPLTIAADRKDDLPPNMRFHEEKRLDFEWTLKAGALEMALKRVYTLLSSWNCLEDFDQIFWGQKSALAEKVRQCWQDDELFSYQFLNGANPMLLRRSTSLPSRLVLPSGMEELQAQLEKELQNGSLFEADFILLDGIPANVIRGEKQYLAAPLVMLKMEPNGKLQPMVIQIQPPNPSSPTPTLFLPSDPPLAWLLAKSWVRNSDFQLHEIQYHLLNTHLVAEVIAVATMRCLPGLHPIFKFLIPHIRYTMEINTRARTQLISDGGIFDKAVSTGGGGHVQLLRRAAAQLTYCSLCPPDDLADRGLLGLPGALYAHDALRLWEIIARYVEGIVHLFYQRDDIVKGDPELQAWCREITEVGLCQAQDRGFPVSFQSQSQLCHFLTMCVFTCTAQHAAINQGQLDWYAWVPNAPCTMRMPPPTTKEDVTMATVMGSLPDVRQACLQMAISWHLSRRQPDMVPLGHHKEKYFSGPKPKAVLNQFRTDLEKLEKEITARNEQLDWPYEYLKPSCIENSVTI

The target in this test is Polyunsaturated fatty acid lipoxygenase ALOX12 (Homo sapiens) (UniProt P18054). Description: Primary qHTS assay for inhibitors of human arachidonate 12S-lipoxygenase (ALOX12): Round 2. Conditions: purified 12hLO, xylenol orange hydroperoxide absorbance; activity change, negative = inhibition: at 0.00344 µM (top of the series). A digest of the protocol:
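Purified human 12hLO (150 nM final) in 25 mM Hepes, 0.01% Triton X-100, pH 7.0 was preincubated 15 min at room temperature with compound. Then 40 uM arachidonic acid was added, 30 min. Hydroperoxide was read by Fe-XO absorbance ratio 573/405 nm.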
In the case of `Oc1ccc(C(O)CNCCCCCCNCC(O)c2ccc(O)c(O)c2)cc1O` (centres undefined), the activity change, negative = inhibition was found to be 23.4%.
On to `COc1ccc2[nH]c(S(=O)Cc3ncc(C)c(OC)c3C)nc2n1` (centres undefined), for which the activity change, negative = inhibition amounted to 36.9%.
Same read-out and setting: to `CC(C)c1nc(CN(C)C(=O)N[C@H](C(=O)N[C@@H](Cc2ccccc2)C[C@H](O)[C@H](Cc2ccccc2)NC(=O)OCc2cncs2)C(C)C)cs1` belongs 7.49%.
As for `CCc1ccc(NC(=S)N(Cc2ccc(Cl)cc2)Cc2ccc(C(=O)O)cc2)cc1`, the Potency was active: 39.8 µM.
With `O=C(NCC1CCCCN1)c1cc(OCC(F)(F)F)ccc1OCC(F)(F)F` (centres undefined), the activity change, negative = inhibition was -7.71%.
On to `CC1CCc2cc(F)cc3c(=O)c(C(=O)O)cn1c23` (centres undefined), for which the activity change, negative = inhibition amounted to 31.8%.
In the case of `CC(/C=C1\SC(=S)N(NS(=O)(=O)c2ccc(C)cc2)C1=O)=C\c1ccccc1`, the Potency was active: 15.8 µM.
With `CCOc1ccc(NC(=O)c2nnn3c2COC(c2ccc(Cl)cc2)C3)cc1` (centres undefined), the Potency is active: 44.7 µM.
In the case of `CCOC(=O)C1=C(C)NC(C)=C(C(=O)OC)C1c1cccc([N+](=O)[O-])c1` (centres undefined), the activity change, negative = inhibition is -3.54%.
The same measure, in the same setting: to `COc1cc2c(c(OC)c1OC)-c1ccc(OC)c(=O)cc1[C@@H](NC(C)=O)CC2` belongs 25.6%.
Regarding `COc1ccc(/C=C2/CCn3c2nc2cc(Cl)ccc2c3=O)cc1O`, the Potency is active: 1.78 µM.
On to `CCCCCCCC(=O)[O-].CCCCCCCC(=O)[O-].[Zn+2]`, for which the activity change, negative = inhibition came to 9.95%.
Consider `S=c1[nH]cc2cnccn12`, for which the Potency was active: 8.91 µM.
`CNC(=O)c1ccccc1Sc1ccc2c(/C=C/c3ccccn3)n[nH]c2c1`: the activity change, negative = inhibition is -12.2%.
With `CC(CN1c2ccccc2Sc2ccccc21)N(C)C` (centres undefined), the activity change, negative = inhibition came to 5.48%.
For `N#CC(C#N)=C1NC(N)=C(C#N)C(c2ccccc2)=C1C#N`, the Potency was active: 6.31 µM.
As to `COc1ccc(/C(C)=C/C(=O)O)c(OC)c1`, the activity change, negative = inhibition is -34.9%.
As for `Cc1ccc(C=Nc2ccc(Nc3ccccc3)cc2)s1`, the Potency was active: 39.8 µM.
In the case of `CN(C)[C@@H](CCOc1cccc2ccccc12)c1ccccc1`, the activity change, negative = inhibition was -8.65%.
Still for that read-out and setting: to `CCCC(CCC)C(=O)O` belongs 21.8%; to `CC(C)[N+](C)(C)CC(O)COc1cccc2ccccc12` (centres undefined), -4.89%; to `COc1cc(N)c(Cl)cc1C(=O)NC1CCN(CCCOc2ccc(F)cc2)CC1OC` (centres undefined), 1.35%.
With `CNC(=O)c1c(I)c(NC(C)=O)c(I)c(C(=O)O)c1I`, the activity change, negative = inhibition amounted to 5.45%.
With `S=C(NCCCc1ccccc1)Nc1ccc(Cl)cc1`, the Potency is active: 39.8 µM.
As to `Cn1c(=O)c2[nH]c(Br)nc2n(C)c1=O`, the activity change, negative = inhibition stood at 10.4%.
The same measure, in the same setting: to `CC(C)(C)NC(=O)[C@@H]1CN(Cc2cccnc2)CCN1C[C@@H](O)C[C@@H](Cc1ccccc1)C(=O)N[C@H]1c2ccccc2C[C@H]1O` belongs -12.2%; to `COc1ccc2cc1Oc1ccc(cc1)C[C@H]1c3c(cc4c(c3Oc3cc5c(cc3OC)CCN(C)[C@@H]5C2)OCO4)CCN1C`, -1.84%; to `Cn1c(=O)c2c(ncn2C)n(C)c1=O`, 19.9%.
Consider `Cc1ccc(NC(=S)NNC(=S)Nc2ccc(C)cc2C)cc1`, for which the Potency was active: 35.5 µM.
Consider `O=C(CCCN1CCC(O)(c2ccc(Cl)cc2)CC1)c1ccc(F)cc1`, for which the activity change, negative = inhibition was -18.8%.
Still for that read-out and setting: to `COc1cc(C(=O)N2CCCCCCC2)cc(OC)c1OC` belongs -17.5%.
On to `O=C(O)C(=O)Nc1cccc(-c2nn[nH]n2)c1`, for which the activity change, negative = inhibition is 15.3%.
With `COc1ccc(CN(CCN(C)C)c2ncccn2)cc1`, the activity change, negative = inhibition stood at 22.4%.
Same read-out and setting: to `Cc1cc2c(OCC(CNC(C)(C)C)OC(=O)c3ccccc3)cccc2[nH]1` (centres undefined) belongs -63.2%.
In the case of `Cc1cc(Cl)ccc1NNC(=O)c1c(C)noc1C`, the Potency was active: 31.6 µM.
Take `NCC(=O)CCC(=O)O`: the activity change, negative = inhibition came to 19.5%.
On the same count and under the same terms, to `NCCS` belongs 3.69%.
With `COCCOC(=O)C1=C(C)NC(C)=C(C(=O)OC(C)C)C1c1cccc([N+](=O)[O-])c1` (centres undefined), the activity change, negative = inhibition is -7.72%.
In the case of `CCCOc1ccc2c(c1)CC[C@@H]1[C@@H]2CC[C@]2(C)C(OC)CC[C@@H]12` (some centres undefined), the activity change, negative = inhibition is -13.5%.
Regarding `CN1C(C(=O)Nc2ccccn2)=C(O)c2ccccc2S1(=O)=O`, the activity change, negative = inhibition was -3.97%.
Same read-out and setting: to `COc1c(C)c2c(c(O)c1C/C=C(\C)CCC(=O)OCCN1CCOCC1)C(=O)OC2` belongs -0.597%.
In the case of `Cc1ccc(C(=O)O)cc1NC(=S)NC(=O)c1ccc([N+](=O)[O-])c(C)c1`, the Potency was active: 20 µM.
As to `O=C(O)c1ccc(-n2nc(-c3ccccc3O)nc2-c2ccccc2O)cc1`, the activity change, negative = inhibition is -0.828%.
The same measure, in the same setting: to `C[C@]12CCC(=O)C=C1C=C[C@@H]1[C@@H]2CC[C@@]2(C)[C@H]1CC[C@@]21CCC(=O)O1` belongs 16.2%.
Regarding `COc1ccc2ccccc2c1C1CC(=O)N2CN(C3CCCCC3)CSC2=C1C#N` (centres undefined), the Potency is active: 17.8 µM.
On the same count and under the same terms, to `C=CCc1ccccc1OCC(=O)OCCNC(=O)c1cccnc1` belongs active: 39.8 µM.
Consider `CCCNC(C)C(=O)Nc1c(C)csc1C(=O)OC` (centres undefined), for which the activity change, negative = inhibition was -12.8%.
Turning to `Cc1ccccc1CC(=O)N1CCC2(CC1)NC(=O)N(c1cccc(F)c1)N2`, the Potency is active: 2.82 µM.
Consider `COc1cccc(N(C)C(=S)Oc2ccc3c(c2)CCCC3)n1`, for which the activity change, negative = inhibition is -22%.
With `CN(C)c1nccc(N(Cc2ccccc2)Cc2ccccc2)c1C#N`, the Potency was active: 3.16 µM.
Consider `Nc1nc(N)c(-c2ccccc2)s1`, for which the activity change, negative = inhibition is -14.3%.
On the same count and under the same terms, to `Cc1cc(C(C#N)c2ccc(Cl)cc2)c(Cl)cc1NC(=O)c1cc(I)cc(I)c1O` (centres undefined) belongs -0.924%; to `NCCC(O)(P(=O)(O)O)P(=O)(O)O`, 9.8%; to `Cc1onc(-c2ccccc2)c1C(=O)Cl`, -7.59%.

(Values after PubChem BioAssay AID1671190 (National Center for Advancing Translational Sciences (NCATS), 2021).)
